# In PMC10320715:
# No constants are given. Whether binding was seen depends on the method and setting. In cells and extracts the contact can be indirect. Where a sequence is shown, tags or fusion partners need not be part of it.
# T1: mCherry-fused IFT54(1–532) (human) (UniProt Q8TDR0)
# T1 sequence: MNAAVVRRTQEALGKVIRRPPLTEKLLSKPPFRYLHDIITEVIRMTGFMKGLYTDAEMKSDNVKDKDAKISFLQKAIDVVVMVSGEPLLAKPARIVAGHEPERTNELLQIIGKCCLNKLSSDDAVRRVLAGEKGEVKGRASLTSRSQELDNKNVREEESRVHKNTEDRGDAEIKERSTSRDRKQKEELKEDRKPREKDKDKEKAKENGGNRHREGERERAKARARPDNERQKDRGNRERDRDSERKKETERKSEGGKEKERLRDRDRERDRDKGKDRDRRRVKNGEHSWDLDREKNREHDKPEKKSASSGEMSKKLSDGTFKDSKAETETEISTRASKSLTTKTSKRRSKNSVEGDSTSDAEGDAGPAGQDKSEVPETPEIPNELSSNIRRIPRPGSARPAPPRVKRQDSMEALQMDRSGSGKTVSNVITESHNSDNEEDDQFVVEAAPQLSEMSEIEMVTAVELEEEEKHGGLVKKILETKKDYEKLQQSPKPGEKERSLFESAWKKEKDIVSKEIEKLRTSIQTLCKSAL
# B1: IFT88 (protein, UniProt Q13099 1-824)
# chain: MMQNVHLAPETDEDDLYSGYNDYNPIYDIEELENDAAFQQAVRTSHGRRPPITAKISSTAVTRPIATGYGSKTSLASSIGRPMTGAIQDGVTRPMTAVRAAGFTKAALRGSAFDPLSQSRGPASPLEAKKKDSPEEKIKQLEKEVNELVEESCIANSCGDLKLALEKAKDAGRKERVLVRQREQVTTPENINLDLTYSVLFNLASQYSVNEMYAEALNTYQVIVKNKMFSNAGILKMNMGNIYLKQRNYSKAIKFYRMALDQVPSVNKQMRIKIMQNIGVTFIQAGQYSDAINSYEHIMSMAPNLKAGYNLTICYFAIGDREKMKKAFQKLITVPLEIDEDKYISPSDDPHTNLVTEAIKNDHLRQMERERKAMAEKYIMTSAKLIAPVIETSFAAGYDWCVEVVKASQYVELANDLEINKAVTYLRQKDYNQAVEILKVLEKKDSRVKSAAATNLSALYYMGKDFAQASSYADIAVNSDRYNPAALTNKGNTVFANGDYEKAAEFYKEALRNDSSCTEALYNIGLTYEKLNRLDEALDCFLKLHAILRNSAEVLYQIANIYELMENPSQAIEWLMQVVSVIPTDPQVLSKLGELYDREGDKSQAFQYYYESYRYFPCNIEVIEWLGAYYIDTQFWEKAIQYFERASLIQPTQVKWQLMVASCFRRSGNYQKALDTYKDTHRKFPENVECLRFLVRLCTDLGLKDAQEYARKLKRLEKMKEIREQRIKSGRDGSGGSRGKREGSASGDSGQNYSASSKGERLSARLRALPGTNEPYESSSNKEIDASYVDPLGPQIERPKTAAKKRIDEDDFADEELGDDLLPE
# B2: IFT81 (protein, UniProt Q8WYA0 1-676)
# chain: MSDQIKFIMDSLNKEPFRKNYNLITFDSLEPMQLLQVLSDVLAEIDPKQLVDIREEMPEQTAKRMLSLLGILKYKPSGNATDMSTFRQGLVIGSKPVIYPVLHWLLQRTNELKKRAYLARFLIKLEVPSEFLQDETVADTNKQYEELMEAFKTLHKEYEQLKISGFSTAEIRKDISAMEEEKDQLIKRVEHLKKRVETAQNHQWMLKIARQLRVEKEREEYLAQQKQEQKNQLFHAVQRLQRVQNQLKSMRQAAADAKPESLMKRLEEEIKFNLYMVTEKFPKELENKKKELHFLQKVVSEPAMGHSDLLELESKINEINTEINQLIEKKMMRNEPIEGKLSLYRQQASIISRKKEAKAEELQEAKEKLASLEREASVKRNQTREFDGTEVLKGDEFKRYVNKLRSKSTVFKKKHQIIAELKAEFGLLQRTEELLKQRHENIQQQLQTMEEKKGISGYSYTQEELERVSALKSEVDEMKGRTLDDMSEMVKKLYSLVSEKKSALASVIKELRQLRQKYQELTQECDEKKSQYDSCAAGLESNRSKLEQEVRRLREECLQEESRYHYTNCMIKNLEVQLRRATDEMKAYISSDQQEKRKAIREQYTKNTAEQENLGKKLREKQKVIRESHGPNMKQAKMWRDLEQLMECKKQCFLKQQSQTSIGQVIQEGGEDRLIL
# B3: IFT52 (protein, UniProt Q9Y366 1-437)
# chain: MEKELRSTILFNAYKKEIFTTNNGYKSMQKKLRSNWKIQSLKDEITSEKLNGVKLWITAGPREKFTAAEFEILKKYLDTGGDVFVMLGEGGESRFDTNINFLLEEYGIMVNNDAVVRNVYHKYFHPKEALVSSGVLNREISRAAGKAVPGIIDEESSGNNAQALTFVYPFGATLSVMKPAVAVLSTGSVCFPLNRPILAFYHSKNQGGKLAVLGSCHMFSDQYLDKEENSKIMDVVFQWLTTGDIHLNQIDAEDPEISDYMMLPYTATLSKRNRECLQESDEIPRDFTTLFDLSIFQLDTTSFHSVIEAHEQLNVKHEPLQLIQPQFETPLPTLQPAVFPPSFRELPPPPLELFDLDETFSSEKARLAQITNKCTEEDLEFYVRKCGDILGVTSKLPKDQQDAKHILEHVFFQVVEFKKLNQEHDIDTSETAFQNNF
# B4: IFT25 (protein, UniProt Q9Y547 1-144)
# chain: MRKIDLCLSSEGSEVILATSSDEKHPPENIIDGNPETFWTTTGMFPQEFIICFHKHVRIERLVIQSYFVQTLKIEKSTSKEPVDFEQWIEKDLVHTEGQLQNEEIVAHDGSATYLRFIIVSAFDHFASVHSVSAEGTVVSNLSS
# Target: T1, mCherry-fused IFT54(1–532) (human)
# Experiment: co-IP; lysates of IFT54-KO RPE1 cells stably expressing mCherry-fused IFT54 constructs; precipitated with GST-tagged anti-mCherry Nb (LaM-2 version) prebound to glutathione-Sepharose 4B beads; lysis buffer 20 mM HEPES-KOH pH 7.4, 3 mM MgCl2, 1 mM dithiothreitol, 100 mM KCl, 10% glycerol, 5 mM NaCl, 0.1% Triton X-100; beads washed five times; immunoblotting for endogenous IFT88, IFT81, IFT52, IFT25
row,Binder,binding
1,B1,no binding
2,B2,no binding
3,B3,no binding
4,B4,no binding
